This assay deals with His-ASK1 (UniProt Q99683). Briefly: co-IP; L02 cells cotransfected for 2 days (Flag-ARRB1 and His-ASK1, or His-ASK1 and HA-TRAF6), sonicated in ice-cold IP lysis buffer; lysates incubated with antibody-bound beads (anti-His, anti-HA or anti-Flag) 2 h at room temperature or overnight at 4°C; Western blot; cells under normal condition, after H/R challenge, or after shRNA knock-down of ARRB1.

Amino acid sequences for entries named in this document (tags omitted).
UniProt Q99683: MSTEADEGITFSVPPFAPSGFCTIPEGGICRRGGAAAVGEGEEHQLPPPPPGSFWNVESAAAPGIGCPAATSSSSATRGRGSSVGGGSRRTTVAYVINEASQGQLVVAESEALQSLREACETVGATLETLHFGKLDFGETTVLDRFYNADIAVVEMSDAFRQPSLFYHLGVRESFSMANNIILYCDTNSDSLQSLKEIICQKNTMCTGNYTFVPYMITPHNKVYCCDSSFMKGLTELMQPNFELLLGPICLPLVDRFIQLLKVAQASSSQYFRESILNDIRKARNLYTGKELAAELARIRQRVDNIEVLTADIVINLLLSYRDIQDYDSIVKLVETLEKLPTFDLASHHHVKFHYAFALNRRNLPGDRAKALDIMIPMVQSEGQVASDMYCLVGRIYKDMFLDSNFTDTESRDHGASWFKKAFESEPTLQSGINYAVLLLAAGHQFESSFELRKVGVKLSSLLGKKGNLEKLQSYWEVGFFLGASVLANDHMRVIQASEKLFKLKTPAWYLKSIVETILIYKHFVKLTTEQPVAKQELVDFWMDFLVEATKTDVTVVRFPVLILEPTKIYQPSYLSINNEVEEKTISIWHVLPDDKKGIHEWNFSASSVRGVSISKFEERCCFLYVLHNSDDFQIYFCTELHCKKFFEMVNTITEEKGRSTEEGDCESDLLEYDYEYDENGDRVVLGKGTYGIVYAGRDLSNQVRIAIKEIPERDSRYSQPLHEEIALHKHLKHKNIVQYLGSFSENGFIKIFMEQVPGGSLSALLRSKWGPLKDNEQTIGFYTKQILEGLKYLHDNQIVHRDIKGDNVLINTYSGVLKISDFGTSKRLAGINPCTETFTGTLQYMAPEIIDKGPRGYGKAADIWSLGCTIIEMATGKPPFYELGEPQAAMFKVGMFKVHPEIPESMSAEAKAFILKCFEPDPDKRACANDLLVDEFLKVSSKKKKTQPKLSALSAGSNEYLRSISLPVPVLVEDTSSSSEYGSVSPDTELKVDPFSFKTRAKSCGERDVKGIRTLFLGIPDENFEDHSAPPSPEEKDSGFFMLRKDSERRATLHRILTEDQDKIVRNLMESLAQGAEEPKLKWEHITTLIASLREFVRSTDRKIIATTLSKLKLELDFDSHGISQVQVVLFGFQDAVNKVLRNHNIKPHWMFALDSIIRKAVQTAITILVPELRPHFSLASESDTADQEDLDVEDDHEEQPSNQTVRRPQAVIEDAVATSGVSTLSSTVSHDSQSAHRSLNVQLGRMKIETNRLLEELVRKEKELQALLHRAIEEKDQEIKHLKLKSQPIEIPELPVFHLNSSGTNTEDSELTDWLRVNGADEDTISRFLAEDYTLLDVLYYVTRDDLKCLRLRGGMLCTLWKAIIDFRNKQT
UniProt P49407: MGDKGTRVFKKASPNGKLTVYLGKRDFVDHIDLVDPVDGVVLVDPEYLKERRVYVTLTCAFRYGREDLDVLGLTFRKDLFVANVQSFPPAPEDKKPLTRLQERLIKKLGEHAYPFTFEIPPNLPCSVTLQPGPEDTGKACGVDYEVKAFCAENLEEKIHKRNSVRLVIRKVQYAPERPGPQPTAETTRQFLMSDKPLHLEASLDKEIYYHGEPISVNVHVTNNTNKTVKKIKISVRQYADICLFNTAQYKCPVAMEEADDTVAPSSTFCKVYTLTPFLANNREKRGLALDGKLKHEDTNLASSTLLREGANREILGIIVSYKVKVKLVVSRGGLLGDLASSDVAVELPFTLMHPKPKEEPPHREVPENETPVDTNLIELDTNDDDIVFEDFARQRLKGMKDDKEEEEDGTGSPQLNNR

These are yes or no findings as the source states them, for the method shown. In cells and extracts the contact can be indirect. Some binding calls cover weakened binding; strength is not graded here.

For the substance Flag-ARRB1 (from UniProt P49407 1-418), the binding entry is “binds”.
